Data taken from paper doi:10.1101/2022.07.12.22277558.
Read-outs that look alike come from different tables or passages of the source. These are yes or no findings as the source states them, for the method shown. Binding seen in cells or lysates may run through a third protein. Some results given as binding are weak or reduced against the parent protein; the word gives no strength. Blank lines part the entries; values can stand above or below the molecule they belong to.

Protein sequences, listed by entry. Tags and fused reporters are not part of them. Lines headed by an entry give the natural chain unless they say otherwise; changes in a name come on top. Residues count along the entry.
UniProt O43586: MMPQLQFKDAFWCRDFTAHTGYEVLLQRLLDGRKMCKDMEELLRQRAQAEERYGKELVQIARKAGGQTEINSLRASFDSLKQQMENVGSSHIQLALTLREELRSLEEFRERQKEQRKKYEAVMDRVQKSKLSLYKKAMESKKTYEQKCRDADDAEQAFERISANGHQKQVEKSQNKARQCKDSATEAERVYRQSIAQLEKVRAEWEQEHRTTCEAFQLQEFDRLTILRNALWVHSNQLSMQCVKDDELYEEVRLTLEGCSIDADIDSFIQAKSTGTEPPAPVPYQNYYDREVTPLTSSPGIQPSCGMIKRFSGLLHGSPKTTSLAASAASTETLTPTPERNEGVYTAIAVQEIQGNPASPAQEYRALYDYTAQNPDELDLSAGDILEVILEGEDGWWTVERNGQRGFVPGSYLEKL
PSTPIP1-ΔSH3-FLAG (amino acids 1-364): residues 1-364 of O43586
UniProt P42768: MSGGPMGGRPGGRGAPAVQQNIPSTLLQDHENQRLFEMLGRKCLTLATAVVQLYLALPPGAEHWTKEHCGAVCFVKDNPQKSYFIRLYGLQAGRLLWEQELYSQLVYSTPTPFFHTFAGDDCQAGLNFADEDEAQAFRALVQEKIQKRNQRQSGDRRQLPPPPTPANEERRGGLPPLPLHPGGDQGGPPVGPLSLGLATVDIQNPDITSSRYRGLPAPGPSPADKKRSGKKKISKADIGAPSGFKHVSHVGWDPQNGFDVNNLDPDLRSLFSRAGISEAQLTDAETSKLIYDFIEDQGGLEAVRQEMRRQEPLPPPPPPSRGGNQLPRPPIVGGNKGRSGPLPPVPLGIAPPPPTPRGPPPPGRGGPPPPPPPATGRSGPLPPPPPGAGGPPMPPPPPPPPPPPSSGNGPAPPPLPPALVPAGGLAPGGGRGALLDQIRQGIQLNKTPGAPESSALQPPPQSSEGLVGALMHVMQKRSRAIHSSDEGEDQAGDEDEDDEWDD

How the values were obtained:
Assay in all cases: co-IP
[1] = molecular target: PSTPIP1 T371I, FLAG-tagged (human) (UniProt O43586)
[2] = molecular target: PSTPIP1 wildtype, FLAG-tagged (human) (UniProt O43586)
[3] = molecular target: PSTPIP1-ΔSH3-FLAG (amino acids 1-364) (human) (UniProt O43586)
[4] = molecular target: PSTPIP1 A382T, FLAG-tagged (human) (UniProt O43586)
[5] = molecular target: PSTPIP1 G403E, FLAG-tagged (human) (UniProt O43586)
[6] = molecular target: PSTPIP1 T371I, FLAG-tagged (human) (UniProt O43586); remark: listed apart in the source
[7] = molecular target: PSTPIP1 R405C, FLAG-tagged (human) (UniProt O43586)
[8] = molecular target: PSTPIP1 wildtype, FLAG-tagged (human) (UniProt O43586); remark: listed apart in the source
[9] = molecular target: PSTPIP1-ΔSH3-FLAG (amino acids 1-364) (human) (UniProt O43586); remark: listed apart in the source
[10] = molecular target: PSTPIP1 A382T, FLAG-tagged (human) (UniProt O43586); remark: listed apart in the source
[11] = molecular target: PSTPIP1 G403E, FLAG-tagged (human) (UniProt O43586); remark: listed apart in the source

binding [1]: binds
binding [2]: binds
binding [3]: no binding
binding [4]: binds
binding [5]: binds
Molecule: WASp (from UniProt P42768 1-502)

binding [6]: binds
binding [7]: binds
binding [8]: binds
binding [9]: binds
binding [10]: binds
binding [11]: binds
B1: protein tyrosine phosphatase PTP-PEST (enzyme, UniProt Q05209 1-780)
chain: MEQVEILRKFIQRVQAMKSPDHNGEDNFARDFMRLRRLSTKYRTEKIYPTATGEKEENVKKNRYKDILPFDHSRVKLTLKTPSQDSDYINANFIKGVYGPKAYVATQGPLANTVIDFWRMIWEYNVVIIVMACREFEMGRKKCERYWPLYGEDPITFAPFKISCEDEQARTDYFIRTLLLEFQNESRRLYQFHYVNWPDHDVPSSFDSILDMISLMRKYQEHEDVPICIHCSAGCGRTGAICAIDYTWNLLKAGKIPEEFNVFNLIQEMRTQRHSAVQTKEQYELVHRAIAQLFEKQLQLYEIHGAQKIADGVNEINTENMVSSIEPEKQDSPPPKPPRTRSCLVEGDAKEEILQPPEPHPVPPILTPSPPSAFPTVTTVWQDNDRYHPKPVLHMVSSEQHSADLNRNYSKSTELPGKNESTIEQIDKKLERNLSFEIKKVPLQEGPKSFDGNTLLNRGHAIKIKSASPCIADKISKPQELSSDLNVGDTSQNSCVDCSVTQSNKVSVTPPEESQNSDTPPRPDRLPLDEKGHVTWSFHGPENAIPIPDLSEGNSSDINYQTRKTVSLTPSPTTQVETPDLVDHDNTSPLFRTPLSFTNPLHSDDSDSDERNSDGAVTQNKTNISTASATVSAATSTESISTRKVLPMSIARHNIAGTTHSGAEKDVDVSEDSPPPLPERTPESFVLASEHNTPVRSEWSELQSQERSEQKKSEGLITSENEKCDHPAGGIHYEMCIECPPTFSDKREQISENPTEATDIGFGNRCGKPKGPRDPPSEWT
